Results are given in words; binding and its absence hold for the method and conditions named. Binding seen in cells or lysates may run through a third protein. Some results given as binding are weak or reduced against the parent protein; the word gives no strength.
Target: STING (UniProt Q86WV6)
Assay: co-IP; BHK-21 cells cotransfected with the indicated plasmids for 24 h; anti-myc or anti-Flag magnetic beads; Western blot

Protein sequences, listed by entry. Tags and fused reporters are not part of them.
UniProt Q86WV6: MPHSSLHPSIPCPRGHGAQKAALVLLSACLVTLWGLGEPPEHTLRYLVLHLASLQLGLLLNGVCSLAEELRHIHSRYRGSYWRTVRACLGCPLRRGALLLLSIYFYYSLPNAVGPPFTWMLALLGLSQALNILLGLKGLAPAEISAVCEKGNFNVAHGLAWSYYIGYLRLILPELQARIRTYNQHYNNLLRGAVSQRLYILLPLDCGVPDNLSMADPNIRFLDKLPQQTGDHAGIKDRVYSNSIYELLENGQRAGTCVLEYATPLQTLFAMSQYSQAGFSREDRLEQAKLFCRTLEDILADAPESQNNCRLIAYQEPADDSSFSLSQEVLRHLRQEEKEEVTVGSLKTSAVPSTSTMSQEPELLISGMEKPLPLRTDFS
UniProt F1SMI2: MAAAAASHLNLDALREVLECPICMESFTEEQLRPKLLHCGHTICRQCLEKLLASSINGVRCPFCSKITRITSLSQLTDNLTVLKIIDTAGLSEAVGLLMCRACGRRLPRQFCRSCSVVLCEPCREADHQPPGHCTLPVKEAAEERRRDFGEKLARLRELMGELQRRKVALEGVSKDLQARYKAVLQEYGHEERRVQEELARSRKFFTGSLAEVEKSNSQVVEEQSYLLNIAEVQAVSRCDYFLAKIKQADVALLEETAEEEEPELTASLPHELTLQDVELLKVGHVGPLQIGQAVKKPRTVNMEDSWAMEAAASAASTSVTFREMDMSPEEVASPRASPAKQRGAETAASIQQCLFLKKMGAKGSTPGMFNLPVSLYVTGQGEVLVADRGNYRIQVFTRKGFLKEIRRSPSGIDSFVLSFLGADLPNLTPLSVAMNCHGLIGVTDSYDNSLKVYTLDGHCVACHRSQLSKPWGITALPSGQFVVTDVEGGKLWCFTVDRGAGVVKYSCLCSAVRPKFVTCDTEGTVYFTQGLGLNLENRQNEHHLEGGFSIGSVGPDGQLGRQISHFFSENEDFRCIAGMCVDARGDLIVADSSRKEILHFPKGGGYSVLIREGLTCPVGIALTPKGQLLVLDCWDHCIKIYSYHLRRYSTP

Substance: TRIM32 (as used in the co-IP with STING, Fig. 7B-D) (from UniProt F1SMI2 1-652)
- binding: binds

Reference: article PMC12455967
